Taken from: PubChem BioAssay AID1259308 (NCATS, 2017)
Test: 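Candidate targets for better recombinant protein yield in mammalian cells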 (primary screen). Cells: human HEK293 embryonic kidney cells stably expressing firefly luciferase (HEK-CMV-Luc2-Hygro). Reagents: single siRNA against human genes, 0.8 pmol siRNA per well. Duration: 72 h. Measured: 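Luciferase light (ONE-Glo) measured on one replicate plate set and viability (CellTiter-Glo) on the other, scaled to a negative control siRNA, with robust z-scores and luciferase per cell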. Reading the numbers: total luciferase, z-score: higher = more reporter protein produced. Call rule: 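Active when the median/MAD z-score for overall luciferase is greater than 3; a gene was taken forward for validation with new siRNAs if at least two of its three siRNAs passed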. Meaning of the calls: active = raised luciferase; inactive = no rise.
Shown is an unselected part of about 59,000 reagents tested. Of all reagents, about 1,510 (2.6%) got an active call. 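Calls use total luciferase alone and ignore viability, so some active siRNAs may act by altering cell number.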 Entries without a mark were called inactive. Reagents against one gene are numbered here. Further read-outs or replicates are left out here.

| gene knocked down | reagent no. | total luciferase, z-score |
| --- | --- | --- |
| PPIAP59 | 1 | -1.17 |
| PPIAP59 | 2 | 6.98 (active) |
| PPIAP59 | 3 | -0.748 |
| CPD | 1 | -0.48 |
| CPD | 2 | 0.502 |
| CPD | 3 | -0.661 |
| FAIM2 | 1 | 0.0597 |
| FAIM2 | 2 | -1.04 |
| FAIM2 | 3 | 0.786 |
| ZNF875 | 1 | -0.538 |
| ZNF875 | 2 | -0.822 |
| ZNF875 | 3 | 0.702 |
| GPT | 1 | 0.182 |
| GPT | 2 | 1.59 |
| GPT | 3 | -0.0288 |
| REL | 1 | -0.402 |
| REL | 2 | 0.425 |
| REL | 3 | -0.402 |

Reformatted: results already given
gene knocked down	reagent no.	total luciferase, z-score
FAIM2	3	0.786
ZNF875	1	-0.538
ZNF875	2	-0.822
ZNF875	3	0.702
GPT	1	0.182
GPT	2	1.59

The results go on.
| gene knocked down | reagent no. | total luciferase, z-score |
| --- | --- | --- |
| VAT1 | 1 | -0.341 |
| VAT1 | 2 | -0.0964 |
| VAT1 | 3 | -1.44 |
| LINC00960 | 1 | 0.981 |
| LINC00960 | 2 | 0.835 |
| LINC00960 | 3 | -1.44 |
| PES1 | 1 | -2 |
| PES1 | 2 | -0.315 |
| PES1 | 3 | -0.888 |
| GRK2 | 1 | 0.454 |
| GRK2 | 2 | 0.624 |
| GRK2 | 3 | 0.561 |
| ADAMTSL1 | 1 | 0.322 |
| ADAMTSL1 | 2 | -1.01 |
| ADAMTSL1 | 3 | -0.612 |
| ADAMTSL1 | 4 | -0.456 |
| ADAMTSL1 | 5 | -1.24 |
| ADAMTSL1 | 6 | 0.427 |
| GRHPR | 1 | 0.215 |
| GRHPR | 2 | 1.21 |
| GRHPR | 3 | 0.909 |
